# From the odorant receptor screen of Mainland et al. (2015)
# Where “and” joins values, the source holds several entries; their conditions need not be identical. Identical values can stand only once. This is one part of the list. Each value is one well over the wells without odorant, computed here; the data are noisy.
# Assays:
# Test in all cases: odorant receptor activation (CRE luciferase / Renilla) (fold of no-odor wells); higher = more activation
# Conditions in all cases: 100 µM
# OR10H5 A224D clone 1294 = system: OR10H5 A224D clone 1294
# OR10J1 clone 1711 = system: OR10J1 clone 1711
# OR10J3 clone 1458 = system: OR10J3 clone 1458
# OR10J5 R233W clone 1410 = system: OR10J5 R233W clone 1410
# OR10J5 clone 1037 = system: OR10J5 clone 1037
# OR10K1 clone 1024 = system: OR10K1 clone 1024
# OR10K2 clone 1040 = system: OR10K2 clone 1040
# OR10P1 clone 1254 = system: OR10P1 clone 1254
# OR10Q1 clone 1202 = system: OR10Q1 clone 1202
# [1] = system: OR10R2 A191T/E216G/L239F clone 1304
structure (smiles),measurement,setting,value
CCC(C)=O [2-butanone],odorant receptor activation,OR10H5 A224D clone 1294,0.63
same,odorant receptor activation,OR10J1 clone 1711,0.857
same,odorant receptor activation,OR10J3 clone 1458,0.881
same,odorant receptor activation,OR10J5 R233W clone 1410,1.69
same,odorant receptor activation,OR10J5 clone 1037,2.7
same,odorant receptor activation,OR10K1 clone 1024,2.85
same,odorant receptor activation,OR10K2 clone 1040,2.67
same,odorant receptor activation,OR10P1 clone 1254,1.02
same,odorant receptor activation,OR10Q1 clone 1202,0.908
same,odorant receptor activation,[1],1.05
CCOc1cc(C=O)ccc1O [ethyl vanillin],odorant receptor activation,OR10H5 A224D clone 1294,0.914 and 1.26
same,odorant receptor activation,OR10J1 clone 1711,0.859
same,odorant receptor activation,OR10J3 clone 1458,0.896
same,odorant receptor activation,OR10J5 R233W clone 1410,0.996 and 0.962
same,odorant receptor activation,OR10J5 clone 1037,1.67 and 0.973
same,odorant receptor activation,OR10K1 clone 1024,1.14 and 1.35
same,odorant receptor activation,OR10K2 clone 1040,1.77 and 1.14
same,odorant receptor activation,OR10P1 clone 1254,2.48 and 1.08
same,odorant receptor activation,OR10Q1 clone 1202,1.46 and 1.34
same,odorant receptor activation,[1],1.33 and 1.16
CCCCOC(C)=O [butyl acetate],odorant receptor activation,OR10H5 A224D clone 1294,0.637
same,odorant receptor activation,OR10J1 clone 1711,0.881
same,odorant receptor activation,OR10J3 clone 1458,1.09
same,odorant receptor activation,OR10J5 R233W clone 1410,0.193
same,odorant receptor activation,OR10J5 clone 1037,1.48
same,odorant receptor activation,OR10K1 clone 1024,1.23
same,odorant receptor activation,OR10K2 clone 1040,0.969
same,odorant receptor activation,OR10P1 clone 1254,0.8
same,odorant receptor activation,OR10Q1 clone 1202,1.01
same,odorant receptor activation,[1],0.691
CS [methanethiol],odorant receptor activation,OR10H5 A224D clone 1294,0.869
same,odorant receptor activation,OR10J1 clone 1711,0.928
same,odorant receptor activation,OR10J3 clone 1458,0.739
same,odorant receptor activation,OR10J5 R233W clone 1410,1.25
same,odorant receptor activation,OR10J5 clone 1037,1.04
same,odorant receptor activation,OR10K1 clone 1024,1.65
same,odorant receptor activation,OR10K2 clone 1040,1.05
same,odorant receptor activation,OR10P1 clone 1254,0.821
same,odorant receptor activation,OR10Q1 clone 1202,0.954
same,odorant receptor activation,[1],0.985
